According to EP4847489A1, “IMIDAZOLIDINEDIONE HDAC INHIBITOR, AND PREPARATION METHOD THEREFOR AND USE THEREOF” (dated 2026):
For part of its entries the source gives two or more results. They are shown here; other results are not. The source may hold further records. The records of an entry read as repeated measurements (runs, samples, wells or individuals).

The chains behind the UniProt entries cited, without tags or fusion partners.
UniProt Q13547, whole entry: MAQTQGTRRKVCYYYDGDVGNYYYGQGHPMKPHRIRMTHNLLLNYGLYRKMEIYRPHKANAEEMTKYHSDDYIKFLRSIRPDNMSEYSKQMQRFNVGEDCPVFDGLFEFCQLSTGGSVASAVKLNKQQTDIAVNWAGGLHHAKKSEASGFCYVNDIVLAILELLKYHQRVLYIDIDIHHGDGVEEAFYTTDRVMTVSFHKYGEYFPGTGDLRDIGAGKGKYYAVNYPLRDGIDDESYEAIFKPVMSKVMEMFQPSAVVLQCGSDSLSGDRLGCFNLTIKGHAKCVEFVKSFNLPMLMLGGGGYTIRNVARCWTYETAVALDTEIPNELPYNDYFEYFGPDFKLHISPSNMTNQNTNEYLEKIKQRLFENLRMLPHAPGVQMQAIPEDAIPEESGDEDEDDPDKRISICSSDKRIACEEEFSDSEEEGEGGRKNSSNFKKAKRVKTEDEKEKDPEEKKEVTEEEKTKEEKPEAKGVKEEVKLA

Molecular target: HDAC1 (Homo sapiens, UniProt Q13547)
Assay: HDAC inhibition assay (HDAC1 inhibitory activity)
Details: read-out: HDAC1 inhibitory activity (IC50)

For `COc1ccccc1/C=C1\NC(=O)N(CCCCCCCC(=O)NO)C1=O`, the IC50 was 13 nM and 3.6 nM.
